Values of other authors as cited in patent publication US20080176828A1, “Treating melanoma with BIS(THIOHYDRAZIDE AMIDES)” (priority 2006, published 2008).
For at least one compound, name, drawing or mass did not settle the structure.

Test system: melanoma
Details: currently used melanoma treatments; cited from earlier work

In the case of `Cn1nnc2c(C(N)=O)ncn2c1=O` [Temozolomide (Temodar), Temozolomide], the CR is given as 2.6%, the OR is given as 13.5% and the PR is given as 9.6%. The Survival was 7.7 months and the TTP was 58 days.
In the case of `CN(C)/N=N/c1[nH]cnc1C(N)=O` [DTIC (dacarbazine), dacarbazine], the OR is listed as 10-20%.
